Measured values published in US20150010479A1, “TREATMENT OF MICROBIAL INFECTIONS” (SINCLAIR PHARMACEUTICALS LIMITED, priority 2012, published 2015).
Where “and” joins values, the source holds several entries; their conditions need not be identical. Equal entries are not always repeated. Where two headings read alike, the source gives them in different places.

Experiments:
[1] = tested on: P. gingivalis; assay: CPC and delmopinol combination (chequerboard assay), FICi/FBCi; assay type: cell-based, Porphyromonas gingivalis; details: CPC + delmopinol, Decapinol base (Broth A)
Experimental: 190 μl of normal broth (standard assays) or broth A was added to wells of a 96 well plate. […] 5 μl of each dilution of delmopinol was added to the appropriate wells of the 96 wells plate. The contents of each well were mixed thoroughly and then 100 μl volume was discarded.
Plates were then incubated as described above. […] Following incubation the plates were examined and growth/no growth recorded for every well sample (used for FBC determination).
FBCi were calculated in the same manner but using MBC data.
The FICi and FBCi were interpreted using the same parameters as set out above.

[2] = tested on: E. faecalis; assay: MIC/MBC of CPC or delmopinol alone; assay type: cell-based, Entercoccus faecalis; details: Enterococcus faecalis
Experimental: (§1) The final mixture was then sterilized by filtration using a […] PES filter (Nalgene, 169-0045).
(§2) Bacterial preparations were prepared using freshly grown cultures on solid media. Several loop-fulls of culture were transferred to 10-20 ml of the appropriate broth and vortexed gently until a fine suspension was produced. The initial OD600 nm of the cell suspensions was measured and adjusted to 0.2 to give a colony count of 1×10^8 cfu/ml. Final inocula were prepared by diluting the adjusted cell suspensions in appropriate broth as detailed below:
(§3) The broths were added to wells in columns 1, 11 (negative control, broth only) and 12 (positive control).
(§4) 100 μl of normal broth (standard assay) or broth A was added to wells in columns 2-10.
(§5) After mixing in column 10, 100 μl was discarded. 5 μl of the appropriate solvent was added to wells in column 12, mixed and 100 μl discarded.
(§6) Finally, 100 μl of inoculum (prepared in either normal broth or 2× broth A) was added to the wells in columns 1-10 and 12 and the plates were incubated as described above.

[3] = tested on: E. coli; assay: MIC/MBC of CPC or delmopinol alone; assay type: cell-based; details: Escherichia coli
Experimental: as §1, §2, §3, §4, §5, §6

[4] = tested on: Prv. nigrescence; assay: MIC/MBC of CPC or delmopinol alone; assay type: cell-based; details: Prevotella, compound alone
Experimental: as §1, §2, §3, §4, §5, §6

[5] = tested on: C. albicans; assay: MIC/MBC of CPC or delmopinol alone; assay type: cell-based; details: Candida albicans
Experimental: as §1, §2, §3, §4, §5, §6

[6] = tested on: S. aureus; assay: MIC/MBC of CPC or delmopinol alone; assay type: cell-based; details: Staphylococcus aureus
Experimental: as §1, §2, §3, §4, §5, §6

[7] = tested on: P. gingivalis; assay: MIC/MBC of CPC or delmopinol alone; assay type: cell-based; details: Porphyromonas gingivalis
Experimental: as §1, §2, §3, §4, §5, §6

[8] = tested on: S. aureus; assay: CPC in combination with ¼ MIC of delmopinol, FICi/FBCi; assay type: cell-based, Staphylococcus aureus; details: CPC + ¼ MIC delmopinol (not full FIC/FBC)
[9] = read-out: Activity alone Decapinol base MBC
[10] = read-out: Activity alone Decapinol base MIC
[11] = read-out: Activity alone Standard MBC
[12] = read-out: Activity alone Standard MIC

CCCCCCCCCCCCCCCC[n+]1ccccc1 [CPC, cetylpyridinium chloride]
Combination with delmopinol (FIC) Decapinol base FICi [1]: 1.5
MBC [2, 9]: 3.9 µg/mL and 11.5 µM
MIC [2, 10]: 0.98 µg/mL and 2.9 µM
MBC [2, 11]: 15.6 µg/mL and 45.9 µM
MIC [2, 12]: 1.95 µg/mL and 5.7 µM
MBC [3, 9]: 62.5 µg/mL and 184 µM
MIC [3, 10]: 15.6 µg/mL and 45.9 µM
MBC [3, 11]: 31.2 µg/mL and 91.9 µM
MIC [3, 12]: 15.6 µg/mL and 45.9 µM
MBC ([4]; Decapinol base (Broth A), no delmopinol or sodium benzoate present, read-out: Activity alone Decapinol base MBC): 0.49 µg/mL and 1.4 µM
MIC ([4]; Decapinol base (Broth A), no delmopinol or sodium benzoate present, read-out: Activity alone Decapinol base MIC): 0.25 µg/mL and 0.7 µM
MBC ([4]; Standard broth, read-out: Activity alone Standard MBC): 0.49 µg/mL and 1.4 µM
MIC ([4]; Standard broth, read-out: Activity alone Standard MIC): 0.06 µg/mL and 0.2 µM
MBC [5, 9]: 0.98 µg/mL and 2.9 µM
MIC [5, 10]: 0.49 µg/mL and 1.4 µM
MBC [5, 11]: 0.98 µg/mL and 2.9 µM
MIC [5, 12]: 0.98 µg/mL and 2.9 µM
MBC [6, 9]: 1.95 µg/mL and 5.7 µM
MIC [6, 10]: 0.49 µg/mL and 1.4 µM
MBC [6, 11]: 7.8 µg/mL and 22.9 µM
MIC [6, 12]: 3.9 µg/mL and 11.5 µM
MBC [7, 9]: 0.49 µg/mL and 1.4 µM
MIC [7, 10]: 0.49 µg/mL and 1.4 µM
MBC [7, 11]: 0.49 µg/mL and 1.4 µM
MIC [7, 12]: 0.49 µg/mL and 1.4 µM
Combination with delmopinol (FIC) Decapinol base FICi ([8]; Decapinol base (Broth A)): 0.38 s
Combination with delmopinol (FIC) Standard FICi ([8]; Standard broth): 0.38 s
